± gives the standard deviation of the averaged measurements. This is one part of the list. Many values rest on one well or one pass, so single values are uncertain.
Tested on: RAW 264.7 macrophages infected with S. aureus JE2-lux
Assay: host macrophage viability (CellTiter-Fluor) relative to DMSO vehicle; higher = more viable host cells
Details: 10 µM; treatment time 4 h; gentamicin 50 µg/ml

`Cc1cccc(NC(=S)N2CCC(n3c(C)nc4cc(F)ccc43)CC2)c1C` was tested. Which host macrophage viability did it give?
The host macrophage viability was 108%.

Which host macrophage viability does the source give for `Cc1cc2cc(CCNC(=S)Nc3ccccc3F)c(=O)[nH]c2cc1C` here?
The host macrophage viability was 116 ± 3.8%.

With `CCS(=O)(=O)c1cccc(C(=O)Nc2cccc(-c3nc4ccccc4o3)c2)c1` as the molecule, how does the host macrophage viability read?
Its host macrophage viability is 136%.

How did the host macrophage viability turn out when `CCn1nc(C)c2ccnc(N3CCC(C(=O)N4CCN(C5CCN(C)CC5)CC4)CC3)c21` was run?
Its host macrophage viability is 115%.

How did the host macrophage viability turn out when `Cc1ccc(C(=O)Nc2ccccc2-c2nc3ccccc3[nH]c2=O)cc1` was run?
Its host macrophage viability is 126%.

Which host macrophage viability does the source give for `Cc1nnc2ccc(C(=O)N3CCN(Cc4ccccc4)CC3)cn12` here?
The host macrophage viability was 115%.

For `Cc1cc(NC(=O)COc2ccccc2F)n(-c2ncnc3c2cnn3-c2cccc(C)c2C)n1`, which host macrophage viability is on record?
Its host macrophage viability is 129%.

`Cc1cc(C(=O)NCc2c[nH]nc2C)c2cccc(-c3ccc(F)cc3)c2n1` was tested. Which host macrophage viability did it give?
Its host macrophage viability is 119%.

How did the host macrophage viability turn out when `CC1CN(S(=O)(=O)c2ccc(NC(=O)CCN3C(=O)c4ccccc4C3=O)cc2)CC(C)O1` (stereo unspecified) was run?
The host macrophage viability was 117%.

For `O=C(c1ccco1)N1CCN(c2ncnc3c(-c4ccc(Cl)cc4)nsc23)CC1`, which host macrophage viability is on record?
The host macrophage viability was 107%.

For `Cc1ccc(C2C3=C(CC(C)(C)CC3=O)Nc3nc(SCCC(C)C)[nH]c(=O)c32)s1` (stereo unspecified), which host macrophage viability is on record?
The host macrophage viability was 125%.

For `Cc1nnc(SCC(=O)Nc2ccc3c(c2)OCCO3)s1`, which host macrophage viability is on record?
The host macrophage viability was 116%.

Which host macrophage viability does the source give for `Cc1sc2nc(SCC(=O)NCCOCCO)nc(N)c2c1C` here?
Its host macrophage viability is 111 ± 19%.

How did the host macrophage viability turn out when `CC1CCc2nc3ncn(CC(=O)NC4CCCC4)c(=O)c3cc2C1` (stereo unspecified) was run?
The host macrophage viability was 107%.

With `COc1ccccc1C(CNC(=O)c1cc(-c2ccccc2)on1)N1CCC(C)CC1` (stereo unspecified) as the molecule, how does the host macrophage viability read?
Its host macrophage viability is 111%.

How did the host macrophage viability turn out when `CCOc1ccc(NC(=O)CC2SC(=N)NC2=O)c([N+](=O)[O-])c1` (stereo unspecified) was run?
Its host macrophage viability is 127%.

`CCCc1cc(O)nc(SCC(=O)N2CCc3ccccc3C2)n1` was tested. Which host macrophage viability did it give?
The host macrophage viability was 122%.

With `CCCn1ncc(C)c1NC(=O)Cn1nc2n(C)c3ccccc3n2c1=O` as the molecule, how does the host macrophage viability read?
The host macrophage viability was 106%.

For `COc1ccccc1CNC(=O)C(C)n1nc(-c2cc(C)oc2C)cc(N)c1=O` (stereo unspecified), which host macrophage viability is on record?
The host macrophage viability was 107%.

`COc1ccc(C(=O)c2sc3nc4c(cc3c2N)C(=O)CCC4)cc1` was tested. Which host macrophage viability did it give?
The host macrophage viability was 142%.

With `Cc1onc(-c2ccncc2)c1C(=O)N(C)Cc1nc2cc(Cl)ccc2[nH]1` as the molecule, how does the host macrophage viability read?
The host macrophage viability was 103%.

With `COc1ccc(CCN2C(=O)C3N=NN(c4ccccc4)C3C2=O)cc1OC` (stereo unspecified) as the molecule, how does the host macrophage viability read?
Its host macrophage viability is 117%.

Which host macrophage viability does the source give for `COc1cccc(Nc2nc(NCc3ccc(C)cc3)nc3c2cnn3C)c1` here?
Its host macrophage viability is 120%.

How did the host macrophage viability turn out when `COc1ccc(OC)c(Nc2nc(NCc3ccco3)nc(N)c2[N+](=O)[O-])c1` was run?
The host macrophage viability was 94.8%.

Which host macrophage viability does the source give for `Cc1cc2nc(NC(=O)/C=C/c3cccc([N+](=O)[O-])c3)sc2cc1C` here?
Its host macrophage viability is 115%.

For `O=C(O)/C=C\C(=O)NNC(=O)CSc1nc2ccccc2[nH]1`, which host macrophage viability is on record?
Its host macrophage viability is 102 ± 9%.

Which host macrophage viability does the source give for `O=C(CSc1nc(=O)n2ccccc2n1)Nc1ccc2c(c1)OCO2` here?
The host macrophage viability was 114%.

How did the host macrophage viability turn out when `CCOc1ccc2[nH]c(=O)c(CN(CCO)C(=O)Nc3ccc(C)cc3)cc2c1` was run?
Its host macrophage viability is 77.3%.

`Cc1cc(C)n2ncc(C(=O)N3CCN(c4ccccn4)CC3)c2n1` was tested. Which host macrophage viability did it give?
The host macrophage viability was 110%.

With `CCNS(=O)(=O)c1cc(-c2cc(C(=O)NC3CCCCC3)n[nH]2)ccc1OC` as the molecule, how does the host macrophage viability read?
Its host macrophage viability is 85.6%.

For `Cc1ccc(-c2nc3ncccn3c2NC(=O)c2cc3ccccc3oc2=O)cc1`, which host macrophage viability is on record?
The host macrophage viability was 124 ± 14%.

For `Cc1cccc(C(=O)Nc2sc3c(c2C(N)=O)CC(C)CC3)c1` (stereo unspecified), which host macrophage viability is on record?
Its host macrophage viability is 147%.

How did the host macrophage viability turn out when `CCOc1ccc(N2C(=O)c3ccccc3C2C(=O)NCCC(C)C)cc1` (stereo unspecified) was run?
Its host macrophage viability is 123%.

For `COc1ccc(-c2cnc(NC(=O)NC(C)C)n2C)cc1`, which host macrophage viability is on record?
Its host macrophage viability is 128%.

Which host macrophage viability does the source give for `CCOC(=O)c1ccccc1NC(=O)CSc1ccnc2c1c(=O)n(C)c(=O)n2C` here?
The host macrophage viability was 120%.

How did the host macrophage viability turn out when `Cc1nc2c3ccccc3n(CC(=O)Nc3ccc4c(c3)OCO4)c(=O)n2n1` was run?
Its host macrophage viability is 104%.

For `O=C1Oc2ccccc2C(=O)/C1=C/Nc1cccc(Cl)c1`, which host macrophage viability is on record?
Its host macrophage viability is 110%.

Which host macrophage viability does the source give for `Cc1cc(C)c2cc(C)c3nnc(SCC(=O)Nc4nnc(C)s4)n3c2c1` here?
The host macrophage viability was 121%.

How did the host macrophage viability turn out when `COc1ccccc1-c1noc(-c2ccc[nH]c2=O)n1` was run?
Its host macrophage viability is 129%.

For `CC(C)(CCl)C(=O)Nc1c(C(N)=O)oc2ccccc12`, which host macrophage viability is on record?
Its host macrophage viability is 117%.

Which host macrophage viability does the source give for `Cc1ccc(Cc2cnc(NC(=O)C3Cc4ccc(C)cc4C(=O)O3)s2)cc1` (stereo unspecified) here?
Its host macrophage viability is 117%.

`C=CCNc1nnc(SCC(=O)Nc2ccccc2F)c2ccccc12` was tested. Which host macrophage viability did it give?
Its host macrophage viability is 97.9%.

For `O=C(O)CC1C(=O)NCCN1Cc1ccc2ccccc2c1` (stereo unspecified), which host macrophage viability is on record?
The host macrophage viability was 119%.

With `COc1cccc2c(=O)cc(C)n(CC(=O)NCc3ccccc3)c12` as the molecule, how does the host macrophage viability read?
Its host macrophage viability is 97.8%.

For `N#Cc1ccccc1Cn1c(=O)n(CC(=O)NCc2ccccc2Cl)c(=O)c2sccc21`, which host macrophage viability is on record?
Its host macrophage viability is 131%.

How did the host macrophage viability turn out when `N#C/C(=C/c1ccc(O)c([N+](=O)[O-])c1)c1nc(-c2ccc([N+](=O)[O-])cc2)cs1` was run?
The host macrophage viability was 113 ± 22%.

For `COC(=O)c1ccc(CSc2nc(N)cc(=O)[nH]2)cc1`, which host macrophage viability is on record?
The host macrophage viability was 104%.

`CCOC(=O)Cc1csc(NC(=O)CSc2nnc3ccccn23)n1` was tested. Which host macrophage viability did it give?
The host macrophage viability was 118 ± 17%.

How did the host macrophage viability turn out when `Cc1[nH]c2ccccc2c1SCC(=O)Nc1ccc(F)cc1` was run?
The host macrophage viability was 124%.

How did the host macrophage viability turn out when `Cc1nc(N2CCC(C(=O)NCCc3ccc(S(N)(=O)=O)cc3)CC2)c2c(C)c(C)oc2n1` was run?
Its host macrophage viability is 107%.

How did the host macrophage viability turn out when `CCOc1ccc(-c2nc3c(c(=O)[nH]2)Cc2cc(Cl)ccc2O3)cc1` was run?
The host macrophage viability was 126%.
